Test [1] deals with IFT140 (mouse (endogenous in E11.5 embryos)) (UniProt E9PY46). The test is described as follows: affinity purification with mass spectrometry; endogenous IFT88 or IFT140 immunoprecipitated (3 ug antibody, 500 ug protein, overnight 4 C, Protein G magnetic beads) from E11.5 Wdr35+/+ and Wdr35-/- mouse embryo lysates; IP lysis buffer 50 mM Tris-HCl pH 7.5, 100 mM NaCl, 10% glycerol, 0.5 mM EDTA, 0.5% IGEPAL; GFP antibody IP as control; label-free quantification.

Sequences of proteins named here, by UniProt entry; tags and fusion partners are left off.
UniProt E9PY46: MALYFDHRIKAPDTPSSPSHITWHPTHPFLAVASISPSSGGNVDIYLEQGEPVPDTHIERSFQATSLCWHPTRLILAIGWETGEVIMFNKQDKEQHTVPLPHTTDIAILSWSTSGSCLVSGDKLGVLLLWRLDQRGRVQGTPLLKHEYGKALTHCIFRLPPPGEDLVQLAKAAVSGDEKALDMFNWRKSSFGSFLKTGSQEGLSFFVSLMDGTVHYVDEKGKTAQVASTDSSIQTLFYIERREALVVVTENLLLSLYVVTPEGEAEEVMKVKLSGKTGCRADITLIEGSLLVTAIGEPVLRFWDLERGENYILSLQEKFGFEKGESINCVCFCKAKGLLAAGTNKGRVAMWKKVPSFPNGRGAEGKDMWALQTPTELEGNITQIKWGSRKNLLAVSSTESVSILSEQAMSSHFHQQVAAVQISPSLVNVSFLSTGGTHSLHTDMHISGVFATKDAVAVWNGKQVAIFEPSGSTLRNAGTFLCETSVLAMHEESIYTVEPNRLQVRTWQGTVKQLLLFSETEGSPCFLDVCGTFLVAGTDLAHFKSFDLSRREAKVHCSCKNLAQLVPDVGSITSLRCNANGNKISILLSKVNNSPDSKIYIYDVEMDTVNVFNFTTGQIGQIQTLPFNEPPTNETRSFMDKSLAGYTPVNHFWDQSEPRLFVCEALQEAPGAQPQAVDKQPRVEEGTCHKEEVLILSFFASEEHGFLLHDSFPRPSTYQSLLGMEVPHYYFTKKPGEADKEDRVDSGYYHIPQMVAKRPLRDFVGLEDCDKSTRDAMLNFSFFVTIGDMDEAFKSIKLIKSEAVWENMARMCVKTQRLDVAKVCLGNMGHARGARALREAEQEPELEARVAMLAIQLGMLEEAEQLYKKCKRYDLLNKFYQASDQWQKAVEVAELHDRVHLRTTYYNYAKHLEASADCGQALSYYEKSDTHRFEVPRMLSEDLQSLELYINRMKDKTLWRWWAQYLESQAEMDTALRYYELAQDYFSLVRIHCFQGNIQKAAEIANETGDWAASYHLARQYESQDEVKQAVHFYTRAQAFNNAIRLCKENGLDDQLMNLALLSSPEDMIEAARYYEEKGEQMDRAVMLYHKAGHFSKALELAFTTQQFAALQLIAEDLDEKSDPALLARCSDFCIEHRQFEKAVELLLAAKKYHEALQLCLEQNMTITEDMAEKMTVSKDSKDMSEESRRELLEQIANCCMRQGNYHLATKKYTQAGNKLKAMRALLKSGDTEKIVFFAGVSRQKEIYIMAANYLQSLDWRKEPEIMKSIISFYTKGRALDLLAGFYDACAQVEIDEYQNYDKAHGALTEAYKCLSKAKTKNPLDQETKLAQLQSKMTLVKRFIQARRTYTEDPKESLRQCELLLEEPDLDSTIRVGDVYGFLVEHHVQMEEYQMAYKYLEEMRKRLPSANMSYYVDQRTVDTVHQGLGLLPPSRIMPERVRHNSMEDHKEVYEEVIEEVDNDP

Test [2] deals with T1, IFT88 (mouse (endogenous in E11.5 embryos)) (UniProt Q61371).
T1 sequence: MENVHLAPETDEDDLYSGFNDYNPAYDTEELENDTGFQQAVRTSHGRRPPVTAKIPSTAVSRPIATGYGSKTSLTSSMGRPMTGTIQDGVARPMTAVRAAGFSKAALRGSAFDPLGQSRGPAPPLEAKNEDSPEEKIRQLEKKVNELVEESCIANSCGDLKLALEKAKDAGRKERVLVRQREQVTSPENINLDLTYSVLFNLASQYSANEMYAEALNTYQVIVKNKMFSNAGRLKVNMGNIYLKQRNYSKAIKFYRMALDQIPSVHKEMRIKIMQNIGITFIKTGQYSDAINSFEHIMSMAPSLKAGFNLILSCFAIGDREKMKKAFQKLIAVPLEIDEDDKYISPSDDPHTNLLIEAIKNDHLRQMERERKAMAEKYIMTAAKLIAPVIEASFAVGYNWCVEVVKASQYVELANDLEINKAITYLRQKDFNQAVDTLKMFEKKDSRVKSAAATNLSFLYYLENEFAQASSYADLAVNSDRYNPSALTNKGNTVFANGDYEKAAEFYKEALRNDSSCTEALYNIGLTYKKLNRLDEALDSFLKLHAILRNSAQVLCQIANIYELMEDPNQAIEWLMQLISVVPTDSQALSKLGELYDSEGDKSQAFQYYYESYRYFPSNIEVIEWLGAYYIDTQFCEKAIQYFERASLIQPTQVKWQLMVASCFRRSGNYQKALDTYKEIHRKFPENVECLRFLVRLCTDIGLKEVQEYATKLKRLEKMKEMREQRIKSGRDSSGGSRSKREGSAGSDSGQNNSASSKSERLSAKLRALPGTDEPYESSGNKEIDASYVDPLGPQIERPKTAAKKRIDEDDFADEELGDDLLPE
The description is as above.

No constants are given. Whether binding was seen depends on the method and setting. In cells and extracts the contact can be indirect. These calls come from enrichment with a bait or labelling near it, and not all partners need be listed.

B1: IFT144/WDR19 (protein, UniProt Q3UGF1 1-1341)
chain: MKRVFSLLEKSWLGAPIQFAWQKSSGNYLAVTGADYIVKIFDRHGQKRSEISLPGNCVTMDWDKDGDILAVIAEKSSCIYLWDANTNKTSQLDNGMRDQMSFLLWSKIGSFLAVGTIKGNLLIYNHQTSRKIPVLGKHTKKITCGCWNSENLLALGGEDKMITVSNQEGDTIRQTPVKSEPSDIKFSMSKTDERISSAENTISAVVGKKMLFLFHLNEPDNPVDLEFQQAYGNIVCYSWYGDGYIMIGFSRGTFLAISTHFPEVGQEIFKARDHKDNLTSVALSQTLNKAATCGDNCIKIHDLTELRDMYAIINLDDENKGLGTLSWTDDGQLLALSTQRGSLHVFLTKLPILGDACHTRIAYLTSLLEVTVANLIEGEPPITVSVDVEPTFVAVGLYHLAVGMNNRAWFYVLGENVVKKLKDVEYLGTVASICLHSDYAAALFEGKIQLHLIENEMLDAQEERETRLFPAVDDKCRILCHALTSDFLIYGTDTGIIHYFFIEDWQFVNDYRHPVGVKKLFPDPNGTRLVFIDEKSDGFVYCPVNDATYEIPDFSPTIKGVLWENWPMDKGVFIAYDDDKVYTYAFHKDTIQGSKVILAGSTKLPFSHKPLLLYNGELTCQTQSGKINSIYLSTHSFLGSMKDTEPTDLRQMLTQTLLLKRFSDAWDICKMLNDRTSWSELAKACLHHMEVEFAIRVSRTMGDVGTVMSLEQIKGIEDYNLLAGHLAMFTNDFNLAQDLYLASNCPVAALEMRRDLQHWDSALQLAKRLAPDQIPFISKEYAIQLEFTGDYVNALAHYEKGITGDNKEHDEVCLAGVAQMSIRMGDIRRGANQALKHPSRVLKRDCGAILENMKQFSEAAQLYEKGQYYDRAASVYIRCKNWAKVGELLPHVSSPKIHLQYAKAKEADGRYKEAVVAYENAKQWNSVIRIYLDHLNNPEKAVSIVRETQSLDGAKMVARFFLQLGDYGSAIQFLVLSKCNNEAFTLAQQHNKMEIYADIIGAEDTTNEDYQSIALYFEGEKRHFQAGKFFLLCGQYSRALKHFLKCPSSEDNVAIEMAIETVGQAKDELLTNQLIDHLMGESDGMPKDAKYLFRLYMALKQYREAARTAIIIAREEQSAGNYRNAHDVLFSMYAELKAQKIKIPSEMATNLMILHSYILVKIHVKSGDHMKGARMLIRVANNISKFPSHIVPILTSTVIECHRAGLKNSAFSFAAMLMRPEYRNKIDAKYKKKIEAMVRRPDTSETEEATTPCPFCQFLLPECELLCPGCKNNIPYCIATGRHMLKDDWTMCPHCGFPALYSEFKILLNSESTCPMCSERLNSSQLKKITDCSQYLRTEME
B1: the binding result in test [1] is listed as “binds”.

B2: WDR35/IFT121 (protein, UniProt Q8BND3 1-1181)
chain: MFFYLSKKIAVPNNVKLKCISWNKDQGFIACGGEDGLLKVLRLETQTDDSKLRGLAAPSNLSMNQNLEGHSGAVQVVTWNEQYQKLTTSDQNGLIIVWMLYKGSWYEEMINNRNKSVVRSMSWNADGQKICIVYEDGAVIVGSVDGNRIWGKDLKGIQLCHVTWSADSKILLFGMANGEIHIYDNQGNFIMKMKLNCLVNVTGAISIAGIHWYHGTEGYVEPDCPCLAICFDNGRCQIMRHENDQNPVLIDTGMYVVGIQWNHIGSVLAVAGSQKVVTQDKDINIVQFYTPFGEHLGTLKVPGKQMCSLSWEGGGLKIALAVDSFIYFANIRPDYKWGYCSNTVVYAYTRPDRPEYCVVFWDTKNSEKYVKYVKSLISITTCGDFCILATKADENHPQEENEMETFGATFVLVLCNSIGTPLDPKYIDLVPLFVAMTKTHVIAASKEAFYTWQYRVAKKLTALEINQITRSRKEGRERIYHVDDVPSGSVDGVFDYSKAIQGTRDPICAITASDKTLIVGRESGVIQRYSFPNVALIQKYSLDCRACQLSLNCNSSRLAIIDIAGVLTFFDLDTRVTDSTGQQVVGELLKLERKDVWDMKWAKDNPDLFAMMEKTRMYVFRNLDPEEPIQTSGYICNFEDLEIKSVLLDEILKDPEHPSKDYIMNFEIRSLRDSRALIEKVGIEDASQFIEDNPHPRLWRLLAEAALQKLDLYTAQQAFVRCKDYQGIKFVKLLGNLQSESMKQAEVIAYFGRFEDAERMYQDMDRRDLAIGLRMKLGDWFRVLQLLKTGSGDADDSLLEQANNAIGEYFADRQKWQNAVQYYVKGRNQERLAECYYMLEDYEGLETLANSLPENHKLLPEIAQMFVRVGMCEQAVSAFLKCNQPKAAVDTCVHLNQWNKAVELAKSHSMKEIGSLLARYASHLLEKNKTLDAIELYRKASYFFDAAKLMYKIADEEAKKRTKPLRVKKLYVLSALLIEQYHEQMKNAQRGKVKGKNSEATSALAGLLEEEVLSTTSRFTDNAWRGAEAYHFFILAQRQLYEGYVDTALKTALHLRDYEDIIPSVEIYSLLALCACASRAFGTCSKAFIKLESLETLSAEQKQQYEDLALEIFTKHTPKDNRKSELNSLLEGGEGKLPTCIATGSPIIEYQFWVCKVCKHYVLAQEISNYNFCPLCHSSVE
On to B2, for which the binding entry in test [1] is reported as “binds”.

B3: IFT22/RABL5 (protein, UniProt Q9DAI2 1-185)
chain: MLKAKILFVGPCESGKTVLANFLTESSDITEYNPTQGVRILEFENPHVTSNNKGTGCEFELWDCGGDSKFESCWPALMKDAHGVVIVFNADIPSHLKEIEMWYSCFVQQQFLQDSHCMLVAHHKPGSGGERGSLALSPPLNKLKLVHSNLEEDPEEVRVEFIKYLKSIINSMSESRDREEMLIIT
Consider B3, for which, in test [2], the binding result is “binds”.

B4: IFT139/TTC21B/THM1 (protein, UniProt Q0HA38 1-1315)
chain: MDSQGLKTLINYYCQERYYHHVLLVASEGMKKYSSDPVFRFYHAYGTLMEGKAQEALREFEAIKNKQDVSLCSLMALMYVHKMSPNPDREAILELDTKMKEQRKEAGRKALYHAGLFLWHIGRHDKAREYIDRMSKMPHDSNEGPILKAWLDITRGKEPYAKKALRYFEEGLQDGNDIFALLGKVLCLEIRQNYSGALETVSQIIVNFPSFLPAFEKKMKLQLALQDWDQTVETAQRLLLQDNHNVEALRMLALYYLCREGDVEKAATKLENLGNALDVMEPQNAQLFYKITLAFSRTCGRNQLILQKVQSFLEKAFSLTPQQAEIATELGYQMILQGKVKEAWKWYRTAMTLNESNISAVTGLIRCQLIEGQLQDADQQLEFFSEFQQSMGKSAELMYLHAVLATKKNNRQDEVINLLNDVVNTHFSHLEDLPLGIQYFEKLNPDFLLEVVTEYLNLCPIQPAGPGQPLSPVLRRCSSVLETIIRSVPGLPQAVFLMAKVKYLSGDTEAAYNNLQHCLEHSPSYAEAHLLMAQVYLSQDKVKLCSQSLELCLSYNFNVREYPLYHLIKAQSQKKMGEVAEAIKTLHMAMNLPGMRRSRASSKSKHRTEVDASHRLSIFLELVEVHRLNGEQHEAAKVLQDAIHEFSGTCEELRVTIANADLALAQGDTDRALSMLRNVTTEQPYFIEAKEKMADIYLKHRKEKMLYITCYREIAERMPSPRSFLLLGDAYMNIQEPEEAIVAYEQALNQNPKDGTLARKIGKALVKTHNYSKAITYYEAALKSGQQNCLCYDLAELLLRLKLYEKAEKVLQHSLAHEPVSELSALMVDGRSQVLLAKVYSKMERPSDAIAALQQARELQARILKRVQMEQPDAVPSQKHFAAEICAEIAKHSAAQRDYEKAITFYREALVHCETDSKIMLELAQLYLAQEDLDASLRHCALLLQRDQDNEPATMLMADLMFRKQDYEQAVYHLQQLLDRKPDNFMTLSRLIDLLRRCGKLEDVPRFFLMAEKHNSRTKLEPGFQYCKGLHFWYTGEPNDALRHFNKARKDSDWGQNALYNMIEICLNPDNETIGGEVFENLNGDLGTSPEKQESVQLAVRTAEKLLKELKPQTVQGRLQLRIMENCCLMATKQKSSVEQALNTFTEIAASEKDHIPALLGMATAYMILKQTPKARNQLKRIAKMPWNPIEAEDLEKSWLLLADIYIQSAKYDMAEELLKRCLCHNRSCCKAYEYMGYIMEKEQAYTDAAFNYEMAWKHSNQTNPAVGYKLAFNYLKAKRYVDAIDVCHQVLEAHPTYPKIRKDILDKARASLRP
For the molecule B4, the binding entry in test [1] is listed as “binds”.

B5: IFT43 (protein, UniProt Q9DA69 1-206)
chain: MDDLLDLGEERRRSSATSGAKMGRRAHQESTQAENYLNSKNSSLTQTGEAPPPKPPRRQGGWADDSMKMAKLGKKVSEEMEDHRLRQQNLMGSDDDDIPVIPDLEDVQEEDFVLQVASPPSIQVNRVMTYRDLDNDLMKYSAFQTLDGEIDLKLLTKVLAPEHEVREDDVGWDWDHLYTEVSSELLTEWDLLRAEKEDPVGPSRYI
Turning to B5, the binding result in test [1] is “binds”.

For the origin of these results see publication PMC8754431.
